# According to paper PMC7819943, “Rice protein-binding microarrays: a tool to detect cis-acting elements near promoter regions in rice”:
# Amino acid sequences for entries named in this document (tags omitted).
# UniProt Q0JBA9, entry or part of it: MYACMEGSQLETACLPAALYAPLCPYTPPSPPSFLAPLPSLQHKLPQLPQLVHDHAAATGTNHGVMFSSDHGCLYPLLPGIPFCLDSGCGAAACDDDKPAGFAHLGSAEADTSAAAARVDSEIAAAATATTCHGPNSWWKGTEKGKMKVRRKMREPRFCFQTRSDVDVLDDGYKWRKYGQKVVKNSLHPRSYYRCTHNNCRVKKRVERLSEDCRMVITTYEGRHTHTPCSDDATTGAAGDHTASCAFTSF
# This is one part of the list.
# Molecular target: OsWRKY34 (Oryza sativa, UniProt Q0JBA9 1-250)
# Experiment: protein-binding microarray (RPBM); PBS, 2% BSA, 51.3 ng/ul salmon testes DNA, 50 uM zinc acetate, 200 nM TF, 25 C, 1 h; high values mean tight binding
# Details: protein: recombinant; tags: N-terminal polyhistidine and DsRed monomer fusion (pET32a); label: CyDye5-dUTP incorporated in the synthesized complementary strand; 3' TTTTT single-stranded linker to array surface; dsDNA, one strand shown
# Summary of the method: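 The binding signal for each feature is its fluorescence intensity in arbitrary units. An Axon 4000B scanner was used to read a custom Agilent array that had been made double-stranded with Cy5-dUTP primer extension, blocked with 2% BSA, incubated at 25 °C for 1 h with 200 nM protein in PBS, 2% BSA, salmon testes DNA and 50 µM zinc acetate, and washed. The protein was an N-terminal polyhistidine–DsRed transcription factor fusion from E. coli BL21-CodonPlus, purified on Ni–NTA.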
row,Sequence,binding signal
1,AAATGCCCAGCCTAGCCTGAAACCAACCGCAACGAACGCCCGGAGTCACCTAGTGCAG,10300 fluorescence intensity (a.u.)
2,GGCGGTGGCGGTGACGGTGGAGGTGGAGGCGGTGTGGCATCGGAGTCACCTAGTGCAG,8420 fluorescence intensity (a.u.)
3,TCATCTATGGACTTTCATTAATTTCCCATGTTTATTTTTTCGGAGTCACCTAGTGCAG,10300 fluorescence intensity (a.u.)
4,CAACGAAAATACTAACAACATGCACCTGGCCGCGTTGACCCGGAGTCACCTAGTGCAG,13900 fluorescence intensity (a.u.)
5,CACAATATTATCCATGCATATCCCTTGGTTTATAATTAATCGGAGTCACCTAGTGCAG,8810 fluorescence intensity (a.u.)
6,AGCCGCTCCATCCTTACTGTCCTGGTGAATTAATTGGGTACGGAGTCACCTAGTGCAG,11300 fluorescence intensity (a.u.)
7,CTGCAAAGTAACTTTTTTTTTCTGTTTCCTGTTACGTGATCGGAGTCACCTAGTGCAG,8300 fluorescence intensity (a.u.)
8,TAAGATGTTTTGACTTTGGTCAAAGTCAAACTACTTTGAGCGGAGTCACCTAGTGCAG,13200 fluorescence intensity (a.u.)
9,AATTTTTTTCGTTTTACATAATATACTATGTATTATCTATCGGAGTCACCTAGTGCAG,8620 fluorescence intensity (a.u.)
10,CTTAGCCGCGTCGCGCTGCTCTGCTTGATCATCATCACCTCGGAGTCACCTAGTGCAG,10300 fluorescence intensity (a.u.)
11,CTACACTTCACAGCACTGCACTAAACGCTCTTTGGAGGATCGGAGTCACCTAGTGCAG,9470 fluorescence intensity (a.u.)
12,CTTTATTTCCGGTCTTTACACGATGTGCACACAACCTATACGGAGTCACCTAGTGCAG,8260 fluorescence intensity (a.u.)
13,TCAAATTGCACCGGTTTCAATAGTTCAGGGGTCGAGATATCGGAGTCACCTAGTGCAG,8850 fluorescence intensity (a.u.)
14,TTGCCCACACTCTTTTCACATCTATGTATCTATATAGCTACGGAGTCACCTAGTGCAG,10600 fluorescence intensity (a.u.)
15,TGCTACCATCGTCGTGGCTGCGGTGGAGGGAAGGGAGGGGCGGAGTCACCTAGTGCAG,13100 fluorescence intensity (a.u.)
16,CCTCTTTATTCCATTAGCTTTTTTCATCTTCTGCTCCATCCGGAGTCACCTAGTGCAG,10500 fluorescence intensity (a.u.)
17,CTTTTCGTTTTGCTAATTTTGGATTTTATTTTTATTTTTACGGAGTCACCTAGTGCAG,8340 fluorescence intensity (a.u.)
18,TCTTGATGTCTAGCTTCTGTTCGGGTTATGAGGAGGGCTGCGGAGTCACCTAGTGCAG,8380 fluorescence intensity (a.u.)
19,GGAAGCAGTATCTTTTCAAGGGGTGCAGTATTGCAGTGGACGGAGTCACCTAGTGCAG,8040 fluorescence intensity (a.u.)
20,CATTTTTATGCCTTTTTACACCACCGCTGGCTGAACCAAACGGAGTCACCTAGTGCAG,8240 fluorescence intensity (a.u.)
21,CACGATACACATTTAATTCCATACGATCCTACAGGATTATCGGAGTCACCTAGTGCAG,9230 fluorescence intensity (a.u.)

# Single entries from the list:
# For binding signal, CACAATATTATCCATGCATATCCCTTGGTTTATAATTAATCGGAGTCACCTAGTGCAG is entered as 8810 fluorescence intensity (a.u.)
# For binding signal, CTTTATTTCCGGTCTTTACACGATGTGCACACAACCTATACGGAGTCACCTAGTGCAG is entered as 8260 fluorescence intensity (a.u.)

# (continued)

row,Sequence,binding signal
1,GTCTTTACATATTTCGTGTTGCATCGTGAAGCCAATCAATCGGAGTCACCTAGTGCAG,9110 fluorescence intensity (a.u.)
2,GCTCCGTGGGCTGTTTTCACTTCTCTTGGGCTGCTGAGGCCGGAGTCACCTAGTGCAG,8560 fluorescence intensity (a.u.)
3,CACCGCTGCCCGTATCTTCCCCTGCACTACTCACTGACAGCGGAGTCACCTAGTGCAG,8830 fluorescence intensity (a.u.)
4,GCACTATTCACGTTCAACGTTTGATCATTCGTCTTATTTACGGAGTCACCTAGTGCAG,9490 fluorescence intensity (a.u.)
5,CCAGTCTTCGAAGATGCTCGTAGGGGTAGGGTTTGCGTGCCGGAGTCACCTAGTGCAG,9140 fluorescence intensity (a.u.)
6,CGGTAAACTTTTTCTTGCGTTGCTTTGCTTTGCTTTTCTTCGGAGTCACCTAGTGCAG,12700 fluorescence intensity (a.u.)
7,GTAGGGGTCTCGAGGTGTTCAAGTGTGGATTACTCCATAGCGGAGTCACCTAGTGCAG,9710 fluorescence intensity (a.u.)
8,TACTTTTAACTCCACTCGGGTGCTTAGCTCGTCCCTCATCCGGAGTCACCTAGTGCAG,9760 fluorescence intensity (a.u.)
9,AATTTTCCTCACATTTATCCTATATTTATCATTTTTTCCTCGGAGTCACCTAGTGCAG,11800 fluorescence intensity (a.u.)
10,TGACATGGTTCGTTCCCACATGCGCTCGTTTAGACGTCCGCGGAGTCACCTAGTGCAG,9330 fluorescence intensity (a.u.)
11,TTGTTTTCTTCGTTGACGCTTCTAGATTTTTTAACGTTCACGGAGTCACCTAGTGCAG,8840 fluorescence intensity (a.u.)
12,ACACGCTTCACTCTCACGCACGCACACAGCTAGCTACTCGCGGAGTCACCTAGTGCAG,10200 fluorescence intensity (a.u.)
13,CGTTTCAGTAACCGCCATTTTTTCACCAACCAAGTCACGTCGGAGTCACCTAGTGCAG,8610 fluorescence intensity (a.u.)
14,AACAAACTACCGCAAGGCACAAGCCTATTTATGATATAATCGGAGTCACCTAGTGCAG,8840 fluorescence intensity (a.u.)
15,GCTGGATATAGGGATCGATCGGAAGTTTTTTTGGGATATGCGGAGTCACCTAGTGCAG,9530 fluorescence intensity (a.u.)
16,CAATATAAGGGATTTTCAGTTTTTGCTTGCAACGTTTGACCGGAGTCACCTAGTGCAG,8050 fluorescence intensity (a.u.)
17,GATTCATTTTCCTAAGGATTTTTTCCTATATTGCCCTTTGCGGAGTCACCTAGTGCAG,9370 fluorescence intensity (a.u.)
18,TCTCCTGTGTCGCAGCCGACGTCGCCGCCTCTTCTCCCGCCGGAGTCACCTAGTGCAG,8230 fluorescence intensity (a.u.)
19,GTCGAGGTATATATATTCATCTCTATGTCTCGCCGTTGCTCGGAGTCACCTAGTGCAG,9870 fluorescence intensity (a.u.)
20,CTCAAGCAGACTTTCTCACCTACAGCCAATTTTTTAGAAACGGAGTCACCTAGTGCAG,8680 fluorescence intensity (a.u.)
21,TTCAAATATTGTGCGCCCATTTGACCCATCTATTGCAAAACGGAGTCACCTAGTGCAG,9400 fluorescence intensity (a.u.)

row,Sequence,binding signal
1,GGCAGCCACACACACACCACTCCATTTCTGAGCTCTTCTACGGAGTCACCTAGTGCAG,10900 fluorescence intensity (a.u.)
2,AAAGGGGAGTGTTTTAGCATCATTACTTTTTGCCCATGGCCGGAGTCACCTAGTGCAG,9860 fluorescence intensity (a.u.)
3,TCTACCTTTACCCTTTAAGCGCATCTTAATTCGATCCATCCGGAGTCACCTAGTGCAG,8580 fluorescence intensity (a.u.)
4,ACACAGTGGTAGGGGTAGAGGGAGGGTAGAAGAGAAGAGGCGGAGTCACCTAGTGCAG,8770 fluorescence intensity (a.u.)
5,GTGGATAGAGTGGAGGGCGGGACCTTTTTTCCTTTCGTCTCGGAGTCACCTAGTGCAG,10700 fluorescence intensity (a.u.)
6,GGTGATCTCTTATCTTTTATTGTTACTATCTCTGTTCTATCGGAGTCACCTAGTGCAG,11300 fluorescence intensity (a.u.)
7,GCCACGATTGCGACGAGCGGAGGAGGCGGGGAGAGGCGGGCGGAGTCACCTAGTGCAG,8940 fluorescence intensity (a.u.)
8,CGCTGTAGGTTTCCCATTCCCGCCGCCGCCGCCACCGACGCGGAGTCACCTAGTGCAG,9740 fluorescence intensity (a.u.)
9,GAGCGAGGAACCCGGATCGATCCGGGCTGGGTGGGTGGGGCGGAGTCACCTAGTGCAG,12500 fluorescence intensity (a.u.)
10,GAGCGCGGAGAGCATCCCACACCACCCGTCCCATCGCAATCGGAGTCACCTAGTGCAG,10400 fluorescence intensity (a.u.)
11,TAAGTCCCAACCTGTATCCGTCCCCACCTGTCAGTACTTACGGAGTCACCTAGTGCAG,8860 fluorescence intensity (a.u.)
12,ACAAGCTCCTTTGTTTCCTACCATATATGCTCTTCACACTCGGAGTCACCTAGTGCAG,8730 fluorescence intensity (a.u.)
13,AGTCAAAGTGAACTTATTTCCGTGGCGTATATCCCTTATTCGGAGTCACCTAGTGCAG,8050 fluorescence intensity (a.u.)
14,CAATCCTTTTCTTCTCTTCTTCCTGGTCAAATTTTTCCTACGGAGTCACCTAGTGCAG,8750 fluorescence intensity (a.u.)
15,TTCGATTGATGCTAGAGCACATATTACCTCATATAATTTTCGGAGTCACCTAGTGCAG,9130 fluorescence intensity (a.u.)
16,CCTATTTTTGATGTTCCGGATTTTTTCTTTGCGGCCAAAACGGAGTCACCTAGTGCAG,11700 fluorescence intensity (a.u.)
17,CCTTCTCCGACGGCCTCCTCGGCTGCTCCTGGCTCATCGTCGGAGTCACCTAGTGCAG,8680 fluorescence intensity (a.u.)
18,TCTCTCTAGGATCGCCGCCATCCACCACATCCCACGCTTTCGGAGTCACCTAGTGCAG,11800 fluorescence intensity (a.u.)
19,AGAACACTTCAGTTCCTCTGTCTACTGTTTTGATGAGATTCGGAGTCACCTAGTGCAG,8590 fluorescence intensity (a.u.)
20,TTGCCAGGTTCTTTGTCGCTCTGGTAGGTACTTATGTTCACGGAGTCACCTAGTGCAG,9160 fluorescence intensity (a.u.)
21,GTTACACACCGTTGCATTCCCGCGTCGTCCGGATCAGCTCCGGAGTCACCTAGTGCAG,8090 fluorescence intensity (a.u.)

row,Sequence,binding signal
1,AATTGTGCTGTGGTATACACACTCTCCGCGTTCTGGTCTGCGGAGTCACCTAGTGCAG,10600 fluorescence intensity (a.u.)
2,CATCAGGCCCACACACATAAGAAGCGTCATCTACATCGTGCGGAGTCACCTAGTGCAG,8590 fluorescence intensity (a.u.)
3,AAACCTCGCATGCCAATAGTTGGGAACGCCGGGGCGGGGTCGGAGTCACCTAGTGCAG,9340 fluorescence intensity (a.u.)
4,GTCTTTATCTCTCCTCTAATTCCTATGTTTTTCCTGCGGTCGGAGTCACCTAGTGCAG,13000 fluorescence intensity (a.u.)
5,AAGATTTTTTTCTCTCTTTCTGCATCCAAGTCCAATTTCTCGGAGTCACCTAGTGCAG,8680 fluorescence intensity (a.u.)
6,ATCAATCGTTTCACGAGTTCACTGCGCACACTCTCCAAGTCGGAGTCACCTAGTGCAG,8160 fluorescence intensity (a.u.)
7,GCCGTTTGTTGGTTGGTTACGGCTGCGAGCTTGGGCACCGCGGAGTCACCTAGTGCAG,10300 fluorescence intensity (a.u.)
8,GTCGACGTGTCCTACTCATCCACGCCACGTAACCAATTCCCGGAGTCACCTAGTGCAG,9360 fluorescence intensity (a.u.)
9,TTTAATCGTTCGTCTTATTTTAAATTTTCAAAAAACAAACCGGAGTCACCTAGTGCAG,8080 fluorescence intensity (a.u.)
10,ATTCTTACGTAGTGGTCCTCTATGTACTGGTATTATTATACGGAGTCACCTAGTGCAG,8040 fluorescence intensity (a.u.)
11,TAGATGACGCCGTTGATTTTTTTCTCACATATTTGACCATCGGAGTCACCTAGTGCAG,10700 fluorescence intensity (a.u.)
12,CGCGCGTACGCAACGCAACTGCTCTCAATTCAATCTCGCTCGGAGTCACCTAGTGCAG,8940 fluorescence intensity (a.u.)
13,TCGCTTCGTTGACCCCTTGCCGTGTTTGGCTCCTCGACGTCGGAGTCACCTAGTGCAG,10700 fluorescence intensity (a.u.)
14,AATCGCGCGCCCCTCCCTGCTCTTTCAATCTTTTGCATCACGGAGTCACCTAGTGCAG,9360 fluorescence intensity (a.u.)
15,CCTGAGCTTGAACTGTGTTGGTCTTAATTGTTCCTCATGTCGGAGTCACCTAGTGCAG,9780 fluorescence intensity (a.u.)
16,TTTGTCATGTAGAACTTTGCTTATGGATGCATTATGGTTTCGGAGTCACCTAGTGCAG,8530 fluorescence intensity (a.u.)
17,ACTCTCATCTCTTGCATCTATATACTCTTAAGCAGTCAGTCGGAGTCACCTAGTGCAG,8050 fluorescence intensity (a.u.)
18,ACTCACCCTGAACCACACTGCAGCCGTCCGCCTCCTGCAACGGAGTCACCTAGTGCAG,8220 fluorescence intensity (a.u.)
19,CCATTCCTACACGGATATACCAACATTGTTCTAAGCCCATCGGAGTCACCTAGTGCAG,9140 fluorescence intensity (a.u.)
20,GGGTAATGCGGTGCCCTTTTTCCCAGCTAGCGAGACCTCTCGGAGTCACCTAGTGCAG,8170 fluorescence intensity (a.u.)
21,GAGACGGTTCTGGTACTTTGTCCAATCATTTTGTGTCTTGCGGAGTCACCTAGTGCAG,10200 fluorescence intensity (a.u.)
